Experimental data: the supplement of paper PMC6411743
± gives the standard deviation of the averaged measurements. The list shows a part of the results.

The chains behind the UniProt entries cited, without tags or fusion partners. Where a name states a change or a piece, a line headed by the entry shows the natural chain unless it says otherwise.
UniProt Q9ULX3: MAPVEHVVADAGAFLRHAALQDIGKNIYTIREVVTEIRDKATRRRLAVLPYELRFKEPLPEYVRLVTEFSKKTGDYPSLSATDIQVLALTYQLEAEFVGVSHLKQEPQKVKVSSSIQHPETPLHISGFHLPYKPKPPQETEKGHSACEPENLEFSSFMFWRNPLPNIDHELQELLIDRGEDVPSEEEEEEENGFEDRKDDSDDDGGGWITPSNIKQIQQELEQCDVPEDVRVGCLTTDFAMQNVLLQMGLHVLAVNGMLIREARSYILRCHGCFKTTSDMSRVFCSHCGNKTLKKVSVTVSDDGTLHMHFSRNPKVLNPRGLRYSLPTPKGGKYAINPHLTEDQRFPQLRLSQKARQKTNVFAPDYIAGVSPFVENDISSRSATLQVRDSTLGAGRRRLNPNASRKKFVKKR
UniProt Q9P2D3: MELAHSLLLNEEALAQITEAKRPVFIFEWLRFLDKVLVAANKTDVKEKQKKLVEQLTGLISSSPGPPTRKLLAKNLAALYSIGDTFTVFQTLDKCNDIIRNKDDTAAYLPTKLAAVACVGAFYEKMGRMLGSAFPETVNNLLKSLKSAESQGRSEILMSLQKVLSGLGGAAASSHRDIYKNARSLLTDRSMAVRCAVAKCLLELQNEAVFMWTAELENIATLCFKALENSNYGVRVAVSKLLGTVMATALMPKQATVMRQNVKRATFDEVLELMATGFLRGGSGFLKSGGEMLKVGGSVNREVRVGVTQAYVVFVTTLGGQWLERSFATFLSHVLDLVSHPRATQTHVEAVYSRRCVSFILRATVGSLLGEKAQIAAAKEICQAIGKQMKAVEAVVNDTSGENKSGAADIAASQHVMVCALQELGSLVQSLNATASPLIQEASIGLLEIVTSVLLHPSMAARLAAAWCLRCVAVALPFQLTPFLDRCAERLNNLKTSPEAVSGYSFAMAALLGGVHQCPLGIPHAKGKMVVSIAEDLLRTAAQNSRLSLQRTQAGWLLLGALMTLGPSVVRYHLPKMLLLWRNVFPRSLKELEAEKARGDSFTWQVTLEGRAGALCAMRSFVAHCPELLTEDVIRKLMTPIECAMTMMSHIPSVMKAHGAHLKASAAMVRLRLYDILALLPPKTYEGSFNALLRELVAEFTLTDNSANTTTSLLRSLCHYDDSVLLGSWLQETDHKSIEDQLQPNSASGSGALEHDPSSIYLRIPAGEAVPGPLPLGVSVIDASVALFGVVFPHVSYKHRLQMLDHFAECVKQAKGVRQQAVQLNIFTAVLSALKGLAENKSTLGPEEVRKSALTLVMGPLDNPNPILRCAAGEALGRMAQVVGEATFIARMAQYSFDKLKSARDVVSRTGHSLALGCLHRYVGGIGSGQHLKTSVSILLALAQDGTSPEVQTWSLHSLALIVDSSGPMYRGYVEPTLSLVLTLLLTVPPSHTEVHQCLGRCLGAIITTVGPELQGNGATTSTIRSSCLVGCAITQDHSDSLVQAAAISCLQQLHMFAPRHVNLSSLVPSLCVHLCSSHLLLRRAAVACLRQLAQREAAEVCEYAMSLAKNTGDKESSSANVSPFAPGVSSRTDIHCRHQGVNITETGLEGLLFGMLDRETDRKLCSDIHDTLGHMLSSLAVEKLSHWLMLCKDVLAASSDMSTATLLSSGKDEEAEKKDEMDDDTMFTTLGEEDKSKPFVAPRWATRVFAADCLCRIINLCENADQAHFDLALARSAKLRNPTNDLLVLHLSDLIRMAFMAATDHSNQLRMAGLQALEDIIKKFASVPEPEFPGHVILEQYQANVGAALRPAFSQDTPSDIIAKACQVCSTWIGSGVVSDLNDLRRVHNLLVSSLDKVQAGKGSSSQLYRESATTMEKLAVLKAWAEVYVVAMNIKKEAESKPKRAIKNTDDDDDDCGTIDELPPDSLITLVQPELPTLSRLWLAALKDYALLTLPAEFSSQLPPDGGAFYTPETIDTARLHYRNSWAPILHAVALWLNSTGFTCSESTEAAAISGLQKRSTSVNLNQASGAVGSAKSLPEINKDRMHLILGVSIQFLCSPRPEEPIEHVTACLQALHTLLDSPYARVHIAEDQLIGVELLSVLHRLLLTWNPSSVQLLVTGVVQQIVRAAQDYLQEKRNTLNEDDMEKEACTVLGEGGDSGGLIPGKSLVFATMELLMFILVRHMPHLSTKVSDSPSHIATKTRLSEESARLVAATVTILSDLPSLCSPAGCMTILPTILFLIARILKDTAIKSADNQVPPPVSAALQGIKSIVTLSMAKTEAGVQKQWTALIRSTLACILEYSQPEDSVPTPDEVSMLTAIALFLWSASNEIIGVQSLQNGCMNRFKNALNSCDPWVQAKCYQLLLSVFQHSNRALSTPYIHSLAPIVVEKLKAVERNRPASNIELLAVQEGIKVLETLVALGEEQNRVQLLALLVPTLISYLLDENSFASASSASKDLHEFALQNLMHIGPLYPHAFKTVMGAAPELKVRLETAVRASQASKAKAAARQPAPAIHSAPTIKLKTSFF
UniProt Q9NWZ5: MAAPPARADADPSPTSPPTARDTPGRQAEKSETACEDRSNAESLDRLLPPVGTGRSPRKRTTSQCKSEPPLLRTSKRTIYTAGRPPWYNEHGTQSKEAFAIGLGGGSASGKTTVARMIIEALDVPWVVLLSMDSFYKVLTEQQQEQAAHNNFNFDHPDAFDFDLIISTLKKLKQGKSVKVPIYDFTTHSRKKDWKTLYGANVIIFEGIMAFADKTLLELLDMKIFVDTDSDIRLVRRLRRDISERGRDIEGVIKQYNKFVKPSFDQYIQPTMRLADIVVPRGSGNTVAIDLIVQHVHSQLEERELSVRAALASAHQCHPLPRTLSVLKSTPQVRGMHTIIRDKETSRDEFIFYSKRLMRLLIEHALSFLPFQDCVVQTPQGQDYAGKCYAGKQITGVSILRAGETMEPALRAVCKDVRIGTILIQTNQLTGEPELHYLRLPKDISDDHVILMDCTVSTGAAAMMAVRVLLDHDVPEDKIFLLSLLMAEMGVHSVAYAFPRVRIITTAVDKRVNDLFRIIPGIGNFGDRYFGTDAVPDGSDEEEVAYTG
UniProt Q9NZD8: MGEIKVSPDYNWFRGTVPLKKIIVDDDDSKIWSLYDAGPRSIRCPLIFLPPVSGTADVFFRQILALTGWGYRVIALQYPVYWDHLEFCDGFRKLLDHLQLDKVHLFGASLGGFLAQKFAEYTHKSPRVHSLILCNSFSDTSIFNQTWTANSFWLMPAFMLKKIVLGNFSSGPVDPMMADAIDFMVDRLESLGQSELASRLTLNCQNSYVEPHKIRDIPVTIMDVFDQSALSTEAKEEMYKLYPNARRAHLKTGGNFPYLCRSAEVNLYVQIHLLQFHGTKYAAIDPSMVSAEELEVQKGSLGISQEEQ
UniProt Q9NWV4: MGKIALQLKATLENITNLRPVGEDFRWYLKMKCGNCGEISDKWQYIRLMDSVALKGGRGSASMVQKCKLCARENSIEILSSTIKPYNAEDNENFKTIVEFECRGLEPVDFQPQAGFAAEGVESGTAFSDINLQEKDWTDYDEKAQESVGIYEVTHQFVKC
UniProt Q9UEU0: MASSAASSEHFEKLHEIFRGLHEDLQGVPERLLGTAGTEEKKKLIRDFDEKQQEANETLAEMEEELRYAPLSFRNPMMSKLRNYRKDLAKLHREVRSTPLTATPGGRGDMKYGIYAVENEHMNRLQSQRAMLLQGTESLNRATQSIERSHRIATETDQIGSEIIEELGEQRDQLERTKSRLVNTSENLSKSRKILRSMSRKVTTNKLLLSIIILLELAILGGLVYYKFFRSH
UniProt Q9UHD1: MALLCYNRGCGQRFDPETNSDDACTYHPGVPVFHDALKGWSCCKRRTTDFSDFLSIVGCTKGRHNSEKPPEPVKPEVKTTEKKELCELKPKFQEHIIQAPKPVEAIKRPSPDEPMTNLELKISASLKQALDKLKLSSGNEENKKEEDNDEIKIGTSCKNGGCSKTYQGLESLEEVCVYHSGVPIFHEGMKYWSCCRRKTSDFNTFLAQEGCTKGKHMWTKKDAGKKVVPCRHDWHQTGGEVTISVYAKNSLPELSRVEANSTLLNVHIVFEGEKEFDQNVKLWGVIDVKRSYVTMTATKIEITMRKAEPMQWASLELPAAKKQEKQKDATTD
UniProt Q9NY97: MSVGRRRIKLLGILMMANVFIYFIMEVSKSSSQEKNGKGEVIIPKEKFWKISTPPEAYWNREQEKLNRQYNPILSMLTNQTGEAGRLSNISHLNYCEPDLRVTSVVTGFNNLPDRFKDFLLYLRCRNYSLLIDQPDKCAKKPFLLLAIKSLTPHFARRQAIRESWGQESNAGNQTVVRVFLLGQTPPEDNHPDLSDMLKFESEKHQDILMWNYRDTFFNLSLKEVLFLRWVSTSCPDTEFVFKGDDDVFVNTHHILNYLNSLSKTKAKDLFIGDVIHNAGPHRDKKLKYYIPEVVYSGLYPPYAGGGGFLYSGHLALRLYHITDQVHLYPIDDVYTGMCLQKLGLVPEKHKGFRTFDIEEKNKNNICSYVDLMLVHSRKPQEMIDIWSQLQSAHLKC
UniProt Q9UHC7: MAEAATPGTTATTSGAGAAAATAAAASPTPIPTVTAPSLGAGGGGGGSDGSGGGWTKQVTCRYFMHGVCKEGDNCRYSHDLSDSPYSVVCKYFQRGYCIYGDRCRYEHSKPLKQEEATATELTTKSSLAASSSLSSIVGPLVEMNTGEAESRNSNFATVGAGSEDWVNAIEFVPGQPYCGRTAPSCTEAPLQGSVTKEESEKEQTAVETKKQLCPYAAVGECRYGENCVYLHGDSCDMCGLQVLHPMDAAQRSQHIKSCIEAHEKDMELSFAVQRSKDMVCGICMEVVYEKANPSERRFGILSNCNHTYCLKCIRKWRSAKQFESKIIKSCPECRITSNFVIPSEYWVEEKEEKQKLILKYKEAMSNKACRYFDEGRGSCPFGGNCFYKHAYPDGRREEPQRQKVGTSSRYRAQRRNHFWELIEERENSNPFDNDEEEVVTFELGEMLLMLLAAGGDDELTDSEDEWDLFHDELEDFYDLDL
UniProt Q9UK59: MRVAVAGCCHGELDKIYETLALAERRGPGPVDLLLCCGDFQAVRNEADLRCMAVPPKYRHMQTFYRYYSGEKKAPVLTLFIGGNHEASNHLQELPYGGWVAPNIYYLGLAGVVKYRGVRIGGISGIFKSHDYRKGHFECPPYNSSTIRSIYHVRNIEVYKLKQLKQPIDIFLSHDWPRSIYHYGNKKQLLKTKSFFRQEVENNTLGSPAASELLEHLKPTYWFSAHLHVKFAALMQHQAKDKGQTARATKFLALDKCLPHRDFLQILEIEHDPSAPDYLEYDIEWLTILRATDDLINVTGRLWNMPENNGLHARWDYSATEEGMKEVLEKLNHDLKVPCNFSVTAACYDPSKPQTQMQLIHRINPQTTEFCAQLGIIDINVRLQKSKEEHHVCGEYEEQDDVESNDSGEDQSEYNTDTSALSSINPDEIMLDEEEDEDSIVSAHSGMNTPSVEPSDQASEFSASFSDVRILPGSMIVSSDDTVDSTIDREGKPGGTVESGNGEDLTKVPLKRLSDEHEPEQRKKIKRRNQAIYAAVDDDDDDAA
UniProt Q9UL15: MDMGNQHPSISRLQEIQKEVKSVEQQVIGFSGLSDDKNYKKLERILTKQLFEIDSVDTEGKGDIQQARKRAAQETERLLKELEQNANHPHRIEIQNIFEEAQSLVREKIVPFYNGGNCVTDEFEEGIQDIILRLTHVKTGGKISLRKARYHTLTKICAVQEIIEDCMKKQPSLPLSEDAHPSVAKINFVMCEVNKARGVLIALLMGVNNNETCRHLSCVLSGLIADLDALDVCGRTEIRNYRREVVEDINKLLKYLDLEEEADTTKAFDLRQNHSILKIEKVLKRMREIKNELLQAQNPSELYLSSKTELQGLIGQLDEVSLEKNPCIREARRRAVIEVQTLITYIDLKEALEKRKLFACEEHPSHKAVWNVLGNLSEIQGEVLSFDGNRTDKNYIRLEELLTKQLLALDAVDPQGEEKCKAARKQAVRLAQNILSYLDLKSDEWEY
UniProt Q9UHD8: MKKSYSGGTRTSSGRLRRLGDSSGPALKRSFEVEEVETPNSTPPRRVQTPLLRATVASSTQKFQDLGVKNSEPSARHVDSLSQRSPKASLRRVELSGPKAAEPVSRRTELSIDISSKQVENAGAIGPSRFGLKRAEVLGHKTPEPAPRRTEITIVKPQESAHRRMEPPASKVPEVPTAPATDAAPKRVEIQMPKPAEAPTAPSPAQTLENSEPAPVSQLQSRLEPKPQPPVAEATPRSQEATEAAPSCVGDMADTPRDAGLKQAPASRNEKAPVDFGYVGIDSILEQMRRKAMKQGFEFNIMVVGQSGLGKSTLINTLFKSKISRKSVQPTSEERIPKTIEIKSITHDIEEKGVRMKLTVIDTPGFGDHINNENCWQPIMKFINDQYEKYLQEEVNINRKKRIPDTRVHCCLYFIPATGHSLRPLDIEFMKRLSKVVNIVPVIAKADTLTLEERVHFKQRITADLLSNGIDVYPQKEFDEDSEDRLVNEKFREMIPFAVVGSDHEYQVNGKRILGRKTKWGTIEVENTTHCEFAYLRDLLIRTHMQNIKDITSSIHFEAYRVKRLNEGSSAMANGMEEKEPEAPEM

Compound: Nc1nc2c(ncn2[C@@H]2O[C@H](COP(=O)(O)OP(=O)(O)OP(=O)(O)O)[C@@H](O)[C@H]2O)c(=O)[nH]1 [guanosine triphosphate]
Experiment: NP40-soluble protein abundance relative to vehicle (solubility fold change) (ratio); higher = more soluble protein in presence of GTP
Method in brief: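 Jurkat crude lysate prepared with a Dounce homogeniser was treated at eight concentrations spanning 0.1 to 10 mM, 10 min at room temperature then 3 min at 37 °C. Solubilisation with 0.8% NP40 and benzonase and ultracentrifugation preceded TMT labelling of the supernatant for LC-MS/MS. Fold change against the detergent-processed vehicle was determined per replicate from vsn-normalised intensities, across three independent experiments.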

| Target | NP40-soluble protein abundance (concentration: 0.1mM) | NP40-soluble protein abundance (concentration: 0.5mM) | NP40-soluble protein abundance (concentration: 1mM) | NP40-soluble protein abundance (concentration: 2mM) | NP40-soluble protein abundance (concentration: 4mM) | NP40-soluble protein abundance (concentration: 6mM) | NP40-soluble protein abundance (concentration: 8mM) | NP40-soluble protein abundance (concentration: 10mM) |
| --- | --- | --- | --- | --- | --- | --- | --- | --- |
| ADD3 (UniProt Q9UEY8) | 1.01 ± 0.022 | 1.04 ± 0.031 | 1.014 ± 0.0023 | 1.03 ± 0.021 | 1.01 ± 0.024 | 1.01 ± 0.012 | 1.02 ± 0.012 | 1.01 ± 0.012 |
| NOB1 (UniProt Q9ULX3) | 1.02 ± 0.029 | 1.04 ± 0.046 | 1.07 ± 0.1 | 1.08 ± 0.11 | 1.08 ± 0.11 | 1.03 ± 0.11 | 1.05 ± 0.16 | 1.02 ± 0.15 |
| UniProt Q9NWY4 | 1 ± 0.026 | 1 ± 0.011 | 0.962 ± 0.048 | 0.944 ± 0.036 | 0.938 ± 0.078 | 0.916 ± 0.056 | 0.938 ± 0.066 | 0.885 ± 0.081 |
| UniProt Q9ULI0 and related entries | 1.06 ± 0.14 | 1.13 ± 0.14 | 1.36 ± 0.12 | 1.46 ± 0.044 | 1.41 ± 0.073 | 1.44 ± 0.03 | 1.53 ± 0.21 | 1.45 ± 0.21 |
| PAG1 (UniProt Q9NWQ8) | 0.966 ± 0.077 | 0.963 ± 0.075 | 0.979 ± 0.066 | 0.988 ± 0.1 | 0.934 ± 0.068 | 0.977 ± 0.1 | 0.969 ± 0.051 | 1.03 ± 0.043 |
| UniProt Q9P2D3 and related entries | 1.15 ± 0.21 | 1.13 ± 0.16 | 1.11 ± 0.17 | 1.17 ± 0.21 | 1.08 ± 0.15 | 1.11 ± 0.16 | 1.1 ± 0.26 | 1.1 ± 0.21 |
| UniProt Q9NWZ5 and related entries | 1.08 ± 0.03 | 1.01 ± 0.064 | 1.07 ± 0.13 | 1.03 ± 0.099 | 1.08 ± 0.084 | 0.984 ± 0.051 | 1.05 ± 0.096 | 0.992 ± 0.027 |
| UniProt Q9NZD8 and related entries | 1.03 ± 0.047 | 1 ± 0.028 | 0.944 ± 0.089 | 0.937 ± 0.04 | 0.883 ± 0.059 | 0.891 ± 0.072 | 0.916 ± 0.07 | 0.88 ± 0.057 |
| TUBE1 (UniProt Q9UJT0) | 1.04 ± 0.037 | 1.04 ± 0.068 | 1.03 ± 0.035 | 0.981 ± 0.049 | 1.04 ± 0.054 | 0.965 ± 0.03 | 1.02 ± 0.092 | 1 ± 0.035 |
| UniProt Q9UBS0 | 1.13 ± 0.16 | 1.14 ± 0.09 | 1.04 ± 0.14 | 1.11 ± 0.056 | 1.18 ± 0.14 | 1.05 ± 0.088 | 1.1 ± 0.22 | 1.04 ± 0.15 |
| UniProt Q9P2N6 and related entries | 1.02 ± 0.033 | 1.02 ± 0.062 | 1.08 ± 0.024 | 1.12 ± 0.038 | 1.16 ± 0.02 | 1.14 ± 0.054 | 1.26 ± 0.13 | 1.19 ± 0.16 |
| NSMCE4A (UniProt Q9NXX6) | 1.02 ± 0.014 | 1.07 ± 0.022 | 1.01 ± 0.017 | 1.05 ± 0.034 | 1.01 ± 0.035 | 1.03 ± 0.041 | 1.03 ± 0.012 | 1.05 ± 0.0099 |
| PPM1H (UniProt Q9ULR3) | 0.95 ± 0.051 | 1.05 ± 0.049 | 0.953 ± 0.026 | 0.9662 ± 0.0058 | 0.877 ± 0.029 | 0.953 ± 0.029 | 0.86 ± 0.041 | 0.922 ± 0.023 |
| UniProt Q9UEW8 and related entries | 0.948 ± 0.026 | 1 ± 0.035 | 0.919 ± 0.041 | 0.939 ± 0.041 | 0.8758 ± 0.0044 | 0.937 ± 0.013 | 0.863 ± 0.028 | 0.929 ± 0.06 |
| TERF2IP (UniProt Q9NYB0) | 0.968 ± 0.047 | 0.967 ± 0.073 | 0.979 ± 0.057 | 0.964 ± 0.097 | 0.939 ± 0.066 | 0.966 ± 0.068 | 0.979 ± 0.056 | 0.977 ± 0.077 |
| UniProt Q9UKU0-9 | 1.04 ± 0.065 | 1.02 ± 0.028 | 1.04 ± 0.097 | 1.03 ± 0.035 | 1.05 ± 0.14 | 1.01 ± 0.055 | 1.02 ± 0.075 | 1.1 ± 0.098 |
| TXNL4B (UniProt Q9NX01) | 0.968 ± 0.014 | 1.06 ± 0.097 | 1.06 ± 0.11 | 0.985 ± 0.03 | 1.01 ± 0.03 | 1.02 ± 0.088 | 0.99 ± 0.059 | 1 ± 0.067 |
| UniProt Q9NWV4 | 0.937 ± 0.062 | 0.939 ± 0.053 | 0.912 ± 0.063 | 0.903 ± 0.066 | 0.899 ± 0.061 | 0.912 ± 0.061 | 0.889 ± 0.094 | 0.902 ± 0.083 |
| MRPL16 (UniProt Q9NX20) | 1.13 ± 0.039 | 1.15 ± 0.091 | 1.18 ± 0.2 | 1.25 ± 0.24 | 1.26 ± 0.19 | 1.23 ± 0.28 | 1.18 ± 0.27 | 1.14 ± 0.34 |
| WDR70 (UniProt Q9NW82) | 1.08 ± 0.076 | 1.09 ± 0.064 | 1.02 ± 0.065 | 0.993 ± 0.068 | 1.01 ± 0.08 | 1.01 ± 0.062 | 1.04 ± 0.098 | 0.976 ± 0.11 |
| VTI1B (UniProt Q9UEU0) | 0.993 ± 0.037 | 0.969 ± 0.064 | 1.02 ± 0.014 | 1.1 ± 0.067 | 1.14 ± 0.027 | 1.1 ± 0.08 | 1.07 ± 0.1 | 1.121 ± 0.01 |
| CHORDC1 (UniProt Q9UHD1) | 0.949 ± 0.03 | 0.981 ± 0.017 | 0.954 ± 0.045 | 0.92 ± 0.043 | 0.892 ± 0.048 | 0.927 ± 0.024 | 0.908 ± 0.052 | 0.893 ± 0.041 |
| UniProt Q9NY97 and related entries | 0.997 ± 0.064 | 0.898 ± 0.02 | 0.909 ± 0.089 | 0.937 ± 0.012 | 0.93 ± 0.016 | 0.915 ± 0.069 | 0.841 ± 0.065 | 0.924 ± 0.029 |
| UniProt Q9UHC7 and related entries | 1.06 ± 0.019 | 1.161 ± 0.0086 | 1.12 ± 0.013 | 1.09 ± 0.034 | 1.13 ± 0.053 | 1.08 ± 0.019 | 1.18 ± 0.075 | 1.11 ± 0.076 |
| UniProt Q9UHW5 and related entries | 1.08 ± 0.033 | 1.12 ± 0.17 | 1 ± 0.17 | 1.1 ± 0.28 | 1.03 ± 0.13 | 1.05 ± 0.16 | 0.981 ± 0.04 | 1.04 ± 0.099 |
| UniProt Q9NZ08 and related entries | 0.95 ± 0.028 | 0.948 ± 0.023 | 0.924 ± 0.011 | 0.923 ± 0.026 | 0.912 ± 0.022 | 0.899 ± 0.026 | 0.8882 ± 0.0061 | 0.875 ± 0.04 |
| DBR1 (UniProt Q9UK59) | 1.02 ± 0.048 | 1.11 ± 0.079 | 0.966 ± 0.053 | 1.01 ± 0.098 | 0.951 ± 0.057 | 0.966 ± 0.061 | 0.949 ± 0.044 | 0.93 ± 0.054 |
| UniProt Q9UL15 and related entries | 0.957 ± 0.068 | 0.945 ± 0.052 | 0.932 ± 0.043 | 0.939 ± 0.044 | 0.881 ± 0.025 | 0.907 ± 0.084 | 0.857 ± 0.052 | 0.877 ± 0.056 |
| UniProt Q9P2A4 and related entries | 0.995 ± 0.054 | 1.03 ± 0.037 | 0.999 ± 0.077 | 0.999 ± 0.025 | 1.02 ± 0.045 | 1.05 ± 0.067 | 0.96 ± 0.11 | 1.06 ± 0.036 |
| UniProt Q9UHD8 and related entries | 0.974 ± 0.026 | 1.021 ± 0.0087 | 0.9813 ± 0.0091 | 0.967 ± 0.013 | 0.957 ± 0.014 | 0.966 ± 0.019 | 0.962 ± 0.011 | 0.944 ± 0.02 |

Retrieved one by one from above:

| Target | NP40-soluble protein abundance (concentration: 0.1mM) | NP40-soluble protein abundance (concentration: 0.5mM) | NP40-soluble protein abundance (concentration: 1mM) | NP40-soluble protein abundance (concentration: 2mM) | NP40-soluble protein abundance (concentration: 4mM) | NP40-soluble protein abundance (concentration: 6mM) | NP40-soluble protein abundance (concentration: 8mM) | NP40-soluble protein abundance (concentration: 10mM) |
| --- | --- | --- | --- | --- | --- | --- | --- | --- |
| TXNL4B (UniProt Q9NX01) | 0.968 ± 0.014 | 1.06 ± 0.097 | 1.06 ± 0.11 | 0.985 ± 0.03 | 1.01 ± 0.03 | 1.02 ± 0.088 | 0.99 ± 0.059 | 1 ± 0.067 |
| VTI1B (UniProt Q9UEU0) | 0.993 ± 0.037 | 0.969 ± 0.064 | 1.02 ± 0.014 | 1.1 ± 0.067 | 1.14 ± 0.027 | 1.1 ± 0.08 | 1.07 ± 0.1 | 1.121 ± 0.01 |
